PubChem BioAssay AID743121 | NCATS | 2013
This is an unselected part of about 26,000 reagents. 167 of all reagents (0.63%) were called active. 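Calls are per gene from RSA p-values that are not deposited; an individual active-marked siRNA can sensitise only weakly.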 Reagents against one gene are numbered here.

- Purpose: 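Genes whose silencing strengthens cell killing by camptothecin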 (primary screen)
- Cells: MDA-MB-231 cells, a human breast cancer line
- Knock-down reagent: single siRNA against human genes, 20 nM siRNA (0.8 pmol per well)
- Duration: 120 h (drug added 48 h after transfection, read 72 h later)
- Challenge: camptothecin 20 nM (about EC30) for 72 h; vehicle 0.1% DMSO in parallel plates
- Measurement: 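CellTiter-Glo ATP signal, scaled to control siRNA as percent viability; sensitisation given as log2 of untreated divided by camptothecin-treated viability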
- Reading the numbers: log2 vehicle/camptothecin viability: higher = stronger sensitisation to camptothecin; viability with camptothecin and viability without drug: higher = more viable cells
- Active means: 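Each gene scored by redundant siRNA activity (RSA) over its individual siRNA ratios; a gene is called active at p < 0.001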

no.	Target gene	reagent no.	log2 vehicle/camptothecin viability	viability with camptothecin (% of control)	viability without drug (% of control)	Outcome
1	BMX (GeneID 660)	1	-0.568	89.6	60.4	inactive
2	BMX (GeneID 660)	2	-0.412	72.8	54.7	inactive
3	BMX (GeneID 660)	3	0.445	74.9	102	inactive
4	BMX (GeneID 660)	4	-0.168	76.3	67.9	inactive
5	STAT6 (GeneID 6778)	1	-0.165	55.9	49.9	inactive
6	STAT6 (GeneID 6778)	2	-0.251	60.4	50.8	inactive
7	STAT6 (GeneID 6778)	3	-0.0941	98.1	91.9	inactive
8	STAT6 (GeneID 6778)	4	-0.31	79.1	63.8	inactive
9	GSS (GeneID 2937)	1	0.0969	95.3	102	inactive
10	GSS (GeneID 2937)	2	-0.124	83.4	76.5	inactive
11	GSS (GeneID 2937)	3	-0.164	92.6	82.6	inactive
12	ERCC6 (GeneID 2074)	1	-0.0748	99.2	94.2	inactive
13	ERCC6 (GeneID 2074)	2	-0.0118	86	85.3	inactive
14	ERCC6 (GeneID 2074)	3	-0.163	117	104	inactive
15	ERCC6 (GeneID 2074)	4	0.836	25.6	45.6	inactive
16	ALCAM (GeneID 214)	1	0.913	32.2	60.7	inactive
17	ALCAM (GeneID 214)	2	0.418	74.7	99.8	inactive
18	ALCAM (GeneID 214)	3	-0.041	86.2	83.8	inactive
19	ALCAM (GeneID 214)	4	-0.135	88.6	80.7	inactive
20	CYP1A1 (GeneID 1543)	1	-0.51	54.5	38.2	inactive
21	CYP1A1 (GeneID 1543)	2	-0.216	67.4	58.1	inactive
22	CYP1A1 (GeneID 1543)	3	0.353	26	33.1	inactive
23	CYP1A1 (GeneID 1543)	4	-0.221	23.6	20.3	inactive
24	TSHB (GeneID 7252)	1	-0.101	82.3	76.7	inactive
25	TSHB (GeneID 7252)	2	-0.511	52.7	37	inactive
26	TSHB (GeneID 7252)	3	-0.106	62.3	57.9	inactive
27	TSHB (GeneID 7252)	4	-0.478	49.8	35.7	inactive
28	SGTA (GeneID 6449)	1	-0.0971	90	84.2	inactive
29	SGTA (GeneID 6449)	2	-0.139	90.1	81.9	inactive
30	SGTA (GeneID 6449)	3	-0.0691	93	88.7	inactive
31	SGTA (GeneID 6449)	4	-0.249	43.6	36.7	inactive

Reformatted: results already given
TSHB (GeneID 7252) #3 | log2 vehicle/camptothecin viability = -0.106; viability with camptothecin (% of control) = 62.3; viability without drug (% of control) = 57.9; Outcome = inactive
TSHB (GeneID 7252) #4 | log2 vehicle/camptothecin viability = -0.478; viability with camptothecin (% of control) = 49.8; viability without drug (% of control) = 35.7; Outcome = inactive
SGTA (GeneID 6449) #1 | log2 vehicle/camptothecin viability = -0.0971; viability with camptothecin (% of control) = 90; viability without drug (% of control) = 84.2; Outcome = inactive
